No constants are given. Whether binding was seen depends on the method and setting.
Biological target: Recombinant human PSTPIP1 protein expressed in E. coli (human) (UniProt O43586)
Assay: reducing SDS-PAGE; recombinant PSTPIP1 from E. coli run in the presence of DTT, Coomassie stain; both purified

B1: Recombinant human PSTPIP1 protein expressed in E. coli (natural protein, UniProt O43586 1-416, looked up)
chain: MMPQLQFKDAFWCRDFTAHTGYEVLLQRLLDGRKMCKDMEELLRQRAQAEERYGKELVQIARKAGGQTEINSLRASFDSLKQQMENVGSSHIQLALTLREELRSLEEFRERQKEQRKKYEAVMDRVQKSKLSLYKKAMESKKTYEQKCRDADDAEQAFERISANGHQKQVEKSQNKARQCKDSATEAERVYRQSIAQLEKVRAEWEQEHRTTCEAFQLQEFDRLTILRNALWVHSNQLSMQCVKDDELYEEVRLTLEGCSIDADIDSFIQAKSTGTEPPAPVPYQNYYDREVTPLTSSPGIQPSCGMIKRFSGLLHGSPKTTSLAASAASTETLTPTPERNEGVYTAIAVQEIQGNPASPAQEYRALYDYTAQNPDELDLSAGDILEVILEGEDGWWTVERNGQRGFVPGSYLEKL
notes: PSTPIP1, human, recombinant; monomer runs at 48 kDa; the purification is not described, only that several steps of the recovery need DTT; also called recombinant PSTPIP1; source: E. coli (pHIS8 plasmid), recovered recombinant protein
B1 was tested, and the binding was “no binding (condition: in the presence of DTT)”.

Source: publication PMC2702820, “Pyrin Modulates the Intracellular Distribution of PSTPIP1” (PLoS ONE, 2009)
